Measurements reported in patent US9566262B2, “Itch suppression by fucoxanthin” (THE RITSUMEIKAN TRUST, priority 2015, dated 2017).
At least one compound was matched to its structure with a doubt left.

Tested on: GATA-luc
Test: Luciferase reporter assay in HEK293 cells
Type: cell-based
Details: HEK293, treated 3 hours after transfection for 48 hours, vs DMSO (fucoxanthin 0.1, 1, 10 μM)
Source text: The plasmids pGL3-Cebpα promoter-luc and pGL3-Mitf1 promoter-luc were provided by Dr. Hua Huang (University of Colorado school, Denver, USA). The plasmid NF-κB-luc was purchased from Agilent Technologies (Santa Clara, Calif.). The GATA-responsive reporter vector was provided by Dr. Ishijima (Takasaki University of Health and welfare, Gunma, Japan). Three GATA motifs from mouse α-1 globulin gene (5′-TGATAA-3′) were tandemly inserted into Sma I site of pRBGP3. HDC promoter was provided by Dr. Ootsu (Tohoku University school of Medicine, Sendai, Japan) and cloned into Kpn I-Hind III site of pGL4.10 (Hdc promoter-luc). The reporter assay was performed according to the method described in Kanatani, N. et al. Briefly, HEK293 cells were transfected with each of the luciferase constructs (0.2 μg) or pRL-CMV (Promega, Madison, Wis.) (0.001 μg). At 3 hours after transfection, the cells were treated with fucoxanthin (0.1 μM, 1 μM or 10 μM) or DMSO for 48 hours and reporter assay was performed using Dual-Luciferase® Reporter Assay System (Promega). Luciferase activity was measured using luminometer model TD20/20n (Turner BioSystems, Sunnyvale, Calif.) and normalized to Renilla luciferase activity expressed by CMV promoter. […]

`CC1=C(/C=C/C(C)=C/C=C/C(C)=C/C(=O)O)C(C)(C)CCC1` [retinoic acid] was tested, and the GATA-luc expression was “rather upregulated”.
